Assay results from PubChem BioAssay AID1671190 (National Center for Advancing Translational Sciences (NCATS), 2021).
About 6,100 (1.1%) of roughly 580,000 compounds were called active. Inconclusive means that the source gave no clear call. Such entries were picked first, then a sample of the others. Calls come from the whole dose curve; as a rule, active = well fitted inhibition curve with a large enough effect; inconclusive = small, poorly fitted or top-dose-only effect, or another doubt; inactive = no such curve, though single readings can be large or run the other way. Where the call is inconclusive, the potency comes from a doubtful curve fit.

Sequences of proteins named here, by UniProt entry; tags and fusion partners are left off.
UniProt P18054, whole entry, looked up: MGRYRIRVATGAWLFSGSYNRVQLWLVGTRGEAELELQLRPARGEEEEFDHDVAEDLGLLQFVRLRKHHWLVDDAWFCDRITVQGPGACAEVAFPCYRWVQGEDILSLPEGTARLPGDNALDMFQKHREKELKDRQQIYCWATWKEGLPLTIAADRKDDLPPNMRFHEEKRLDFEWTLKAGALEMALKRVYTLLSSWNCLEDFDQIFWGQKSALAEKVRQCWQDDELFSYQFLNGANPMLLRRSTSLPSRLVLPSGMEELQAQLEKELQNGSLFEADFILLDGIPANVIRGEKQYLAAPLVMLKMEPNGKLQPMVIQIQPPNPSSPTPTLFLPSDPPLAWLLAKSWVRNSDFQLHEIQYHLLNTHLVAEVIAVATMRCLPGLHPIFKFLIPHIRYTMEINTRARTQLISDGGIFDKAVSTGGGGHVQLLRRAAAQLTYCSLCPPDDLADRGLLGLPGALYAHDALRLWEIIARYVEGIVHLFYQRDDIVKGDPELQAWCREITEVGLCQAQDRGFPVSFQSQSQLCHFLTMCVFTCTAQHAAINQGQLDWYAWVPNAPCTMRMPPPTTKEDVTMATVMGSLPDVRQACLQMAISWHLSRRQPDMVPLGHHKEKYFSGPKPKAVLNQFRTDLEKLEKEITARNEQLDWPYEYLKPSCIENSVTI

target: Polyunsaturated fatty acid lipoxygenase ALOX12 (Homo sapiens) (UniProt P18054); experiment: Primary qHTS assay for inhibitors of human arachidonate 12S-lipoxygenase (ALOX12): Round 2; conditions: purified 12hLO, xylenol orange hydroperoxide absorbance; activity change, negative = inhibition: at 108 µM (top of the series) unless noted
In short: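 Purified human 12hLO at 150 nM in 25 mM Hepes, 0.01% Triton X-100, pH 7.0, preincubated 15 min at room temperature with compound. Reaction started with 40 uM arachidonic acid, 30 min at room temperature. Hydroperoxide measured by Fe-xylenol orange, 573/405 nm absorbance ratio.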
% is set by controls: 0 for no effect and ±100 for the full control effect; potency is the fitted concentration of half-maximal effect.

Structure (SMILES)	Potency	activity change, negative = inhibition
COCCOc1cc(NCc2ccccc2)c2ncn(C(C)C)c2c1	inconclusive: 8.91 µM [inhibitor, partial curve, poor fit]	–
COC(=O)[C@H](CC(C)C)N(Cc1cn(Cc2ccc(C)cc2)nn1)S(=O)(=O)c1ccc(F)cc1Br	inconclusive: 1.12 µM [inhibitor, full curve, poor fit]	–
Cc1ccc(-c2nnc(NC(=O)c3ccc([N+](=O)[O-])o3)o2)c(C)c1	inconclusive: 50.1 µM [inhibitor, partial curve, poor fit]	–
CCN1CCc2c(sc(NC(=O)c3ccc(S(=O)(=O)N4CC(C)OC(C)C4)cc3)c2C(N)=O)C1 (stereo unspecified)	inconclusive: 50.1 µM [inhibitor, partial curve, poor fit]	–
COC(=O)c1ccccc1NC(=S)NC(=O)c1ccccc1	inconclusive: 22.4 µM [inhibitor, partial curve, poor fit]	–
Cc1ccc(S(=O)(=O)N2CCOCC2)cc1C(=O)Nc1ccc(N2CCCCCC2)cc1	inactive	–
CCN(CC)C(=O)C1CCCN(c2ccc([N+](=O)[O-])cc2/C=N/NC(=O)c2ccc([N+](=O)[O-])cc2)C1 (stereo unspecified)	inconclusive: 35.5 µM [inhibitor, single point]	–
COCCCn1c(C)cc(C(=O)COC(=O)CCc2nc3ccccc3c(=O)[nH]2)c1C	inactive	–
CC(C)NC(=O)Cc1ccc(N(Cc2ccccc2)C(=O)c2ccco2)cc1	inactive	–
CCOC(=O)/C(C#N)=C\c1cc(Br)ccc1OCc1ccc(Cl)cc1	inconclusive: 35.5 µM [inhibitor, partial curve, poor fit]	–
C[C@@H](CO)NC(=O)c1ccc2c3n(nc2c1)-c1ccccc1CO3	inactive	–
COc1cc(CNc2nc(C)c(-c3ccn(C4Cc5ccccc5C4)n3)s2)cc2c1OCO2	inactive	–
COc1cc2c(=O)n(Cc3ccco3)c(=O)n(CC(=O)c3ccc(Br)cc3)c2cc1OC	inactive	–
COc1cc(OC)cc(-n2c(=O)c3ccccc3n(Cc3ccccc3C#N)c2=O)c1	inconclusive: 141 µM [inhibitor, single point]	–
O=C(Nc1c(NC2CCCCC2)c2ccccc2oc1=O)c1ccccc1Cl	inactive	–
O=C(CSc1nnc(-c2ccncc2)n1-c1ccc(F)cc1)NCc1ccc2c(c1)OCO2	inactive	–
CCCCCCSc1ccc([C@@H]2[C@H]3C(=O)N(CC)C(=O)[C@H]3[C@]3(C(=O)OC)CCCCN23)cc1OC	inconclusive: 79.4 µM [inhibitor, single point]	–
Cc1cccc(CN2CCc3ncc(C(=O)NCCC(C)C)n3CC2)c1	inactive	–
O=C1NCCOCCCN(S(=O)(=O)c2ccccc2)[C@H]2CCCC[C@@H]12	inactive	–
O=C(Nc1nc2ccc(F)cc2s1)c1cccc(S(=O)(=O)N2CCc3ccccc32)c1	inconclusive: 56.2 µM [inhibitor, partial curve, poor fit]	–
O=C(c1sccc1Cl)N1CCn2nc(C(O)c3ccccc3)cc2C1 (stereo unspecified)	inactive	–
CN(Cc1ccccc1)S(=O)(=O)c1ccc(NC(=O)c2ccccc2C(=O)O)cc1	inconclusive: 112 µM [inhibitor, single point]	–
N#Cc1ccc(C(=O)N2CCN(c3cc(-c4cccs4)[nH]n3)CC2)cc1	inactive	–
Cc1ccc(S(=O)(=O)/N=C/c2cc(Br)ccc2O)cc1	inconclusive: 22.4 µM [inhibitor, partial curve, poor fit]	–

Compounds listed so far containing two or more sulfur atoms:
Structure (SMILES)	Potency	activity change, negative = inhibition
CCN1CCc2c(sc(NC(=O)c3ccc(S(=O)(=O)N4CC(C)OC(C)C4)cc3)c2C(N)=O)C1 (stereo unspecified)	inconclusive: 50.1 µM [inhibitor, partial curve, poor fit]	–
O=C(Nc1nc2ccc(F)cc2s1)c1cccc(S(=O)(=O)N2CCc3ccccc32)c1	inconclusive: 56.2 µM [inhibitor, partial curve, poor fit]	–

Later entries:

Structure (SMILES)	Potency	activity change, negative = inhibition
Cc1ccc(-c2cc(C(=O)Nc3cc(F)ccc3F)c3ccccc3n2)o1	active: 7.94 µM	–
Nc1nc(SCc2ccccc2)ns1	inactive	–
Cc1cc(C)nc(CCNC(=O)c2cc(COc3ccc(F)cc3Cl)on2)n1	inconclusive: 7.94 µM [inhibitor, partial curve, poor fit]	–
CCCNC(=S)N1CCN(Cc2ccc3c(c2)OCO3)CC1	inconclusive: 2.82 µM [inhibitor, full curve, poor fit]	–
COc1cc(NC(=O)c2ccccc2F)ccc1NC(=O)c1cc2ccccc2o1	inactive	–
O=C(NCCN1CCCCC1)C1(CCO)CCN(Cc2ccccc2)C1 (stereo unspecified)	inactive	–
OCC(O)C(O)C(O)CO (stereo unspecified)	inconclusive: 7.69 µM [inhibitor, partial curve]	–
CCN(CC)S(=O)(=O)c1csc(C(=O)Nc2ccccn2)c1	inactive	–
C[S+](=O)([O-])N1Cc2ccccc2CC2(CCN(CC3CCCC3)C2)C1 (stereo unspecified)	inconclusive: 31.6 µM [inhibitor, full curve, poor fit]	–
CCOc1ccc(/C=C/c2nc(C#N)c(NCc3ccc(C)cc3)o2)cc1	inconclusive: 100 µM [inhibitor, partial curve, poor fit]	–
COC(=O)c1c(C(=O)OC)c2ccncn2c1Cl	inconclusive: 14.1 µM [inhibitor, partial curve, poor fit]	–
CCOC(=O)C1=C(C)N=c2sc(=Cc3cc(Cl)c(OCC(=O)O)c(Cl)c3)c(=O)n2C1c1cccc(OC)c1 (stereo unspecified)	inconclusive: 39.8 µM [inhibitor, partial curve, poor fit]	–
O=C(c1cc(Br)c[nH]1)N1CCCCC1	inconclusive: 50.1 µM [inhibitor, partial curve, poor fit]	–
COc1cc(NC(=O)c2ccc(-c3nc(CSc4ccccc4)c(C)o3)cc2)cc(OC)c1	inactive	–
CCOC(=O)/C(=C\c1ccc(N2CCC(c3ccccc3)=N2)cc1)C(C)=O	inactive	–
COCCN1CCCCCC(O)c2cc(C(=O)NCCCN3CCCC3=O)ccc21 (stereo unspecified)	inactive	–
Cc1cc(C)cc(-n2cccc2)c1	inconclusive: 50.1 µM [inhibitor, single point]	–
CSc1cccc(N/C=C/C(=O)c2ccc(C)c(C)c2)c1	inconclusive: 44.7 µM [inhibitor, partial curve, poor fit]	–
COc1ccc(C(=O)N/N=C/c2ccc(N3CCOCC3)o2)cc1OC	inactive	–
COCC(C)n1c(C)cc(C(=O)CSc2nc3ccccc3c(=O)[nH]2)c1C (stereo unspecified)	inconclusive: 44.7 µM [inhibitor, partial curve, poor fit]	–
COc1cc(CN2CCCCCC2)cc(OC)c1O	inconclusive: 2.24 µM [inhibitor, full curve]	–
COc1ccc(C)cc1-n1nnnc1SCC(=O)Nc1cccnc1Cl	inactive	–
Cc1nc(-c2cccs2)c(CC(=O)Nc2ccccc2)s1	inconclusive: 35.5 µM [inhibitor, partial curve, poor fit]	–
CCCc1nnc([C@H]2CCN(C3CCN(C(C)=O)CC3)C2)o1	inactive	–

Structure (SMILES)	Potency	activity change, negative = inhibition
COc1ccc2c(c1)CC/C(=C\C=C\c1ccccc1)C2=O	inconclusive: 50.1 µM [inhibitor, partial curve, poor fit]	–
CSC(=S)N/N=C/c1c[nH]c2ccccc12	inconclusive: 44.7 µM [inhibitor, partial curve, poor fit]	–
COc1ccc(NC(=O)N2CCCC(c3ccccc3)C2)cc1 (stereo unspecified)	inactive	–
COc1ccc(-c2cc(C(=O)Nc3nnc(C)s3)no2)cc1	inactive	–
Cn1cnc2c1c(=O)n(CC(=O)NCc1ccc(F)cc1)c(=O)n2C	inconclusive: 56.2 µM [inhibitor, partial curve, poor fit]	–
O=C(CSc1ncnc2c1sc1cccc(F)c12)NC1CC1	inconclusive: 12.6 µM [inhibitor, full curve, poor fit]	–
O=C(Nc1ccc2c(c1)OCCO2)c1ccccc1Cl	inactive	–
COC(=O)c1c(NC(=O)c2ccccc2Cl)sc2c1CCC(C)C2 (stereo unspecified)	inconclusive: 31.6 µM [inhibitor, partial curve]	–
CSc1nsc(SCC(=O)NCc2ccccc2)n1	inconclusive: 89.1 µM [inhibitor, partial curve, poor fit]	–
Cc1cc(F)ccc1NC(=S)NC1CCCC1	inconclusive: 25.1 µM [inhibitor, single point]	–
CCOC(=O)C1=NN(C(=O)COc2ccccc2)C(O)(c2ccc(Br)cc2)C1 (stereo unspecified)	inconclusive: 35.5 µM [inhibitor, single point]	–
CCN(CC)CCN(C(=O)c1ccc2c(c1)CCCC2)c1nc2ccc(OC)cc2s1	inactive	–
CCOC(=O)Nc1ccc2c(c1)nc1n2CCN(CCOC)C1	inconclusive: 31.6 µM [inhibitor, single point]	–
Cc1ccc(NC(=O)CSc2nnc([C@@H]3CCCN3C(=O)OC(C)(C)C)o2)c(C)c1	inconclusive: 79.4 µM [inhibitor, partial curve, poor fit]	–
CO/N=C\CC(=O)Nc1ccc(Cl)c(Cl)c1	active: 39.8 µM	–
CC(C)C(C(=O)Nc1ccccc1F)N1C(=O)c2ccccc2C1=O (stereo unspecified)	inconclusive: 100 µM [inhibitor, partial curve, poor fit]	–
Cc1ccc(Cn2ncc3c(NN)ncnc32)cc1	inactive	–
CN1C[C@@H](NC(=O)c2ccccc2)C[C@H]1c1nc(-c2ccc(F)cc2)no1	inconclusive: 56.2 µM [inhibitor, partial curve, poor fit]	–
CCOC(=O)C1=C(C)NC(C)=C(C(=O)OCC)C1C(=O)OCC(=O)NC(C)c1ccccc1 (stereo unspecified)	inconclusive: 158 µM [inhibitor, single point]	–
CCn1c(SCc2nc3ccccc3[nH]2)nnc1-c1ccncc1	inactive	–
CC(C)C(C(=O)Nc1ccc(NC(N)=O)cc1)c1ccc(Cl)cc1 (stereo unspecified)	–	inconclusive: -37% [inhibitor]
C=CCn1c(COc2ccc(F)cc2)nnc1SCC(=O)NC(=O)NCc1ccco1	inconclusive: 50.1 µM [inhibitor, partial curve, poor fit]	–
CN(CC(=O)Nc1ccc(OC(F)(F)F)cc1)C1CCCCC1	inactive	–
